According to PMC6522510 (Nature Communications, 2019):
The entries are a selection whose mix differs from that of the whole data set.

Test system: ML-2
Design: species or system AML cell lines (8); Primary HTS, single concentration about 10 uM, Cell Titer Glo viability; log10 luminescence, per cent inhibition relative to cycloheximide control
Conditions: 72 h, relative to cycloheximide control, log10 luminescence; inhibitor

Structure (SMILES)	ML-2 %inh [%]
Cc1cc(NS(=O)(=O)c2ccc(N)cc2)no1 [SJ000285603-4, SULFAMETHOXAZOLE]	0.3783
Cc1cnc(C(=O)NCCc2ccc(S(=O)(=O)NC(=O)NC3CCCCC3)cc2)cn1 [SJ000287188-5, GLIPIZIDE]	-0.9872
